Results: the supplement of paper PMC10849652
This is one part of the list.

Chains of the proteins cited; added tags and fusions are not shown. Lines headed by an entry give the natural chain unless they say otherwise; changes in a name come on top.
UniProt Q9NS00: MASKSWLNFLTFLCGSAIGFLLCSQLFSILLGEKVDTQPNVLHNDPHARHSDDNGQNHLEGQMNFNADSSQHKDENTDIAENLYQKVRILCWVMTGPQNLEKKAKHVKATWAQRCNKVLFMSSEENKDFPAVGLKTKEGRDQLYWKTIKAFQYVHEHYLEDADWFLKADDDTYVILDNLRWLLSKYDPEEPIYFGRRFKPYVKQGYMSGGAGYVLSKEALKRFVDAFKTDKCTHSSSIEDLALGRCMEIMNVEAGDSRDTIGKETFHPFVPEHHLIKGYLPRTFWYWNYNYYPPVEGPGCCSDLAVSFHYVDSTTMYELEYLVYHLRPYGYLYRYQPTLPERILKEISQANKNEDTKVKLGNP
UniProt Q8NDD1: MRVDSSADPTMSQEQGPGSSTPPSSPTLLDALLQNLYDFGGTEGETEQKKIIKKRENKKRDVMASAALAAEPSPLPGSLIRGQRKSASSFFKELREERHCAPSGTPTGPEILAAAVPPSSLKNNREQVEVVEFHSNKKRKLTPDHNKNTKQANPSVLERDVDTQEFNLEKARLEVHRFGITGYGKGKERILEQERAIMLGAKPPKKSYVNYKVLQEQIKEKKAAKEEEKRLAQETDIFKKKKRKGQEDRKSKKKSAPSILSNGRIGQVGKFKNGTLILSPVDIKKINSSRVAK
UniProt Q8N999, whole entry, looked up: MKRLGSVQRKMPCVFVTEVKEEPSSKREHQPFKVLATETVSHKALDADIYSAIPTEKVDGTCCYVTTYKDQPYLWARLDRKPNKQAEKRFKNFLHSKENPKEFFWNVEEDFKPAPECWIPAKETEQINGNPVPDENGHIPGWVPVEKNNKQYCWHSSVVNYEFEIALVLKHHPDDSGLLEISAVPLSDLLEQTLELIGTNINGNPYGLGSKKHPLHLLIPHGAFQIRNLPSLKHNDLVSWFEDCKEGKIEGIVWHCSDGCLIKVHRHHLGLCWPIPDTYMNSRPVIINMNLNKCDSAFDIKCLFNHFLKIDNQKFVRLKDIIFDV
UniProt Q8IXQ3: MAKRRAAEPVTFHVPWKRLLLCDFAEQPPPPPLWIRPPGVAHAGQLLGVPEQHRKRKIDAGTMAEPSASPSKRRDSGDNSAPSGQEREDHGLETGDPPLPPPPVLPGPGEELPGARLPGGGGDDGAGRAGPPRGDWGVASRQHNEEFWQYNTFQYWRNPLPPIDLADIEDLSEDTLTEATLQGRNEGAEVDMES
UniProt A6NDU8: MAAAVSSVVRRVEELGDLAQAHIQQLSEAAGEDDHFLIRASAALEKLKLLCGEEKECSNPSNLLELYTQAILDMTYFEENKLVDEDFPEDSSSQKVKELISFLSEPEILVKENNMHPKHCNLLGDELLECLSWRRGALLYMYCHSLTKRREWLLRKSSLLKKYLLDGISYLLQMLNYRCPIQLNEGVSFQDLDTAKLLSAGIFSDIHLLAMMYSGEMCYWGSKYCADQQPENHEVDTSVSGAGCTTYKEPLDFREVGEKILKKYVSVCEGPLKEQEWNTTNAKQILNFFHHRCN
UniProt Q6UWU4: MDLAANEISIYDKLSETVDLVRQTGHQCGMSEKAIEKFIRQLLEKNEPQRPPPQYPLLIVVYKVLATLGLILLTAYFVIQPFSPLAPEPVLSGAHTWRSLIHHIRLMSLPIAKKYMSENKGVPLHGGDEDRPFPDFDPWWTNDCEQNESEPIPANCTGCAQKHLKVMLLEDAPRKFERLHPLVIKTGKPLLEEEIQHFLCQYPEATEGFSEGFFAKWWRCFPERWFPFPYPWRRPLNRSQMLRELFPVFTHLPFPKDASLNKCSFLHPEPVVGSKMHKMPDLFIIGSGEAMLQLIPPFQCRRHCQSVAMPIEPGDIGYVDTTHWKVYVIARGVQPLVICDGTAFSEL
UniProt Q9Y2V2: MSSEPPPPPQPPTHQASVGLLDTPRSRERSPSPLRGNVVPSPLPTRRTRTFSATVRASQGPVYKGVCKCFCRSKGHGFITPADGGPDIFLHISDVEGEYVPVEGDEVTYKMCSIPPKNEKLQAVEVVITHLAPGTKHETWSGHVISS
UniProt Q49AR2: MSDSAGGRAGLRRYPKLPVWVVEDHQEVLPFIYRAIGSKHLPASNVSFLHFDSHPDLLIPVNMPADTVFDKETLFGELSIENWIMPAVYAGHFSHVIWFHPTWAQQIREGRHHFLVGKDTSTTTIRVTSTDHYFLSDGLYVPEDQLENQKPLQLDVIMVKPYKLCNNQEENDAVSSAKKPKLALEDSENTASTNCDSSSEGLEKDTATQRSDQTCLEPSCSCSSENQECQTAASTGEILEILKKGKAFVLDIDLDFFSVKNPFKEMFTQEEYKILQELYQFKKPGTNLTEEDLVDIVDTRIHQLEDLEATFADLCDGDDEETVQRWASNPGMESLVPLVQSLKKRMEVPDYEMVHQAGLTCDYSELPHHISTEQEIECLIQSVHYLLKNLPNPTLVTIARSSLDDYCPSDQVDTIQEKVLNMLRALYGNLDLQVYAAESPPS
UniProt Q6ZSJ8: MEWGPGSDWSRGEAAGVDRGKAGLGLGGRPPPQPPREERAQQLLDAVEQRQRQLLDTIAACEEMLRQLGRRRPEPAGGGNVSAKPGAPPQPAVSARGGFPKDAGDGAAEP
UniProt Q9H0W9: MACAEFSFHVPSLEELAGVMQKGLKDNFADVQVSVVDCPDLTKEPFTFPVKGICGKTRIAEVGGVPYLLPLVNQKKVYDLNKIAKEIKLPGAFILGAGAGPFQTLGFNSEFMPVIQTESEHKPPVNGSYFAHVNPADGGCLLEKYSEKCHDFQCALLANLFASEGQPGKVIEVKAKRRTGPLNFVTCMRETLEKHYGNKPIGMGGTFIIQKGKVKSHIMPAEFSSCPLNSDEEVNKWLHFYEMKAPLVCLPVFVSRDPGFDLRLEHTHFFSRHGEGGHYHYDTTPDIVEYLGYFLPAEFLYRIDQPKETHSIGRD
UniProt Q9BSJ5: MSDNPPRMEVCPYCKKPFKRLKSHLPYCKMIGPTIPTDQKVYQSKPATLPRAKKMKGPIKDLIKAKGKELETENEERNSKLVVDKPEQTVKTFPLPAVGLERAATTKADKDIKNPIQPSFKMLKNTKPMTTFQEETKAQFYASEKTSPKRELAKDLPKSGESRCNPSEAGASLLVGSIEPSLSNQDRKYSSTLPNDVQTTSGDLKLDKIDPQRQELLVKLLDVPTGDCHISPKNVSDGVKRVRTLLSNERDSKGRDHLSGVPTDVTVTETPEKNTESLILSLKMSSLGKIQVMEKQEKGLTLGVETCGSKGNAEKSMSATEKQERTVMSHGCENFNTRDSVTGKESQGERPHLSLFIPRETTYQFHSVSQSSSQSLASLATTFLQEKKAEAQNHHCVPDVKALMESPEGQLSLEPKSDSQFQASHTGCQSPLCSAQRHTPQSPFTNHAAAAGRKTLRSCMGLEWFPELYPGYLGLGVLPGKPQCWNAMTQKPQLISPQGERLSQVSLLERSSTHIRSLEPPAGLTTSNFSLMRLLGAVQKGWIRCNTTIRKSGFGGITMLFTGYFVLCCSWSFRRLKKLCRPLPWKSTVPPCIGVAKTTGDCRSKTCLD
UniProt Q9H7E9: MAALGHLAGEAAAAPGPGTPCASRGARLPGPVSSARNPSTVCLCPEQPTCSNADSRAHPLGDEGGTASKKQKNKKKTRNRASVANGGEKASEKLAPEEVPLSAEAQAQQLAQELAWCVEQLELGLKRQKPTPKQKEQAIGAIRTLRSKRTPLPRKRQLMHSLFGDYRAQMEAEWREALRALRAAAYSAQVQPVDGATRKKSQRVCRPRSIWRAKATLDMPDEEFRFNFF
UniProt Q86YS7: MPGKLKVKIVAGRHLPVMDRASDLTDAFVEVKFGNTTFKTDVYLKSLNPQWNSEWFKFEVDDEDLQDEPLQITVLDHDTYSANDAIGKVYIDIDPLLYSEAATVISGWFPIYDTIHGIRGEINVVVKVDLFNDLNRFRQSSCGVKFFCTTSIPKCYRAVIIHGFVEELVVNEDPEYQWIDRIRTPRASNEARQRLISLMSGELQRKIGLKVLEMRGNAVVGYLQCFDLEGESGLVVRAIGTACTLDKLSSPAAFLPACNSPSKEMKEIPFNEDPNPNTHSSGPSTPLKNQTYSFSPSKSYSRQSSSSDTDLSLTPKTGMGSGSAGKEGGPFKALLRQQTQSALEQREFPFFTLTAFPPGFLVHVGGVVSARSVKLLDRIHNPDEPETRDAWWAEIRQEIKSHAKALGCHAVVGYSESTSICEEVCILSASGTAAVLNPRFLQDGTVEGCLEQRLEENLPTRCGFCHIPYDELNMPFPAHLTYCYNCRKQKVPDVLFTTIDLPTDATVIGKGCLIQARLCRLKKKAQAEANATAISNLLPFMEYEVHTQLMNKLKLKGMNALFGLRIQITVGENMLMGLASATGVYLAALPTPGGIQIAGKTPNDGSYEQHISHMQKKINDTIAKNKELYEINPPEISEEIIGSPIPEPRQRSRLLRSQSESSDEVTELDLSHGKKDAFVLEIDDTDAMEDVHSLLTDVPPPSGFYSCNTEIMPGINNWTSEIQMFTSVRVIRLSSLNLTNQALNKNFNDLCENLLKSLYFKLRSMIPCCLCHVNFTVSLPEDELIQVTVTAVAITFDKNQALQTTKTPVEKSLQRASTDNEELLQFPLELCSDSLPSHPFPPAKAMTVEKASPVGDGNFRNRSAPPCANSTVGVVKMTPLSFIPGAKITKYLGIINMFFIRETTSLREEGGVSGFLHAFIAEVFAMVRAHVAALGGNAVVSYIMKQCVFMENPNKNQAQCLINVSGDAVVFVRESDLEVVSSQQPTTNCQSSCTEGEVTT
UniProt Q8N1Q1: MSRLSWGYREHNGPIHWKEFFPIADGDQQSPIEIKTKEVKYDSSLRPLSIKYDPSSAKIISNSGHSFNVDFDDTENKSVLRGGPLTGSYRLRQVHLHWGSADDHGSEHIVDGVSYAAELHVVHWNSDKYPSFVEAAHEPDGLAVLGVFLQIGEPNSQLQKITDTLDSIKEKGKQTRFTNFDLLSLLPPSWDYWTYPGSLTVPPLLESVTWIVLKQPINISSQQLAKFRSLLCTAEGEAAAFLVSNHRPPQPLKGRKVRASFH
UniProt Q9UFG5: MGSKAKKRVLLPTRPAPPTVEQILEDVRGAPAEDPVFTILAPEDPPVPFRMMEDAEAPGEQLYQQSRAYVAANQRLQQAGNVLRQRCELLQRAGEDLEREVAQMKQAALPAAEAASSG
UniProt Q9Y426: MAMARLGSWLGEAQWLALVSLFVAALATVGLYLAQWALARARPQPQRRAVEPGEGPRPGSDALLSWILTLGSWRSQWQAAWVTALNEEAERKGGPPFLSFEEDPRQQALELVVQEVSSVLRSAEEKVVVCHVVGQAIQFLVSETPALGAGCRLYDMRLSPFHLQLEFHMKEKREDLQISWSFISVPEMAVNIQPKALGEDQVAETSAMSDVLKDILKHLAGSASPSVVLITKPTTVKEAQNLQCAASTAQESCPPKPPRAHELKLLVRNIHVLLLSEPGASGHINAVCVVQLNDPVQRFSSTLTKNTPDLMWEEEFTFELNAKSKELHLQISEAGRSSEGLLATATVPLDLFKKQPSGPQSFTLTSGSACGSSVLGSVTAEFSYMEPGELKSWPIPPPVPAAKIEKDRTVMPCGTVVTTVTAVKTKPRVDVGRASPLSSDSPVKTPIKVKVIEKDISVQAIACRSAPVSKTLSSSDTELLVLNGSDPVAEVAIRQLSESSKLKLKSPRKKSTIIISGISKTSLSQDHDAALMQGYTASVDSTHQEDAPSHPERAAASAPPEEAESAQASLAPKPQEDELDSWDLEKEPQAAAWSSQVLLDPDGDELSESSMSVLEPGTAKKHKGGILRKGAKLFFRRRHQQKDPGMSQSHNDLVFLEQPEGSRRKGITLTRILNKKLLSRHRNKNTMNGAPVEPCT
UniProt Q8WUR7: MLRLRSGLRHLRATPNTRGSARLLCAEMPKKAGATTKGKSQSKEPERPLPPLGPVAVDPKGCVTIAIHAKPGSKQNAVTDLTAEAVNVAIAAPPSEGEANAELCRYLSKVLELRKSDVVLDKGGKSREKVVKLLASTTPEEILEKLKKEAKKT
UniProt P35613: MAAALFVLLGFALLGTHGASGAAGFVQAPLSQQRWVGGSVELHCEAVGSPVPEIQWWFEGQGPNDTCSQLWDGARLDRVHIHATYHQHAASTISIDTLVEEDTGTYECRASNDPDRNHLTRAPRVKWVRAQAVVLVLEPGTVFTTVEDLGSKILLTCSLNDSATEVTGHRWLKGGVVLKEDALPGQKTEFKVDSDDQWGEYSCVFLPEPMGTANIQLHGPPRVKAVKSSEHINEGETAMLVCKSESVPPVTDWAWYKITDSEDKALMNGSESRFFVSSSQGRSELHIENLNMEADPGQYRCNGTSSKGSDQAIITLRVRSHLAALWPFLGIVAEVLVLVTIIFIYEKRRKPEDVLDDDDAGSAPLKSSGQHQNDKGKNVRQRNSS
UniProt O95873: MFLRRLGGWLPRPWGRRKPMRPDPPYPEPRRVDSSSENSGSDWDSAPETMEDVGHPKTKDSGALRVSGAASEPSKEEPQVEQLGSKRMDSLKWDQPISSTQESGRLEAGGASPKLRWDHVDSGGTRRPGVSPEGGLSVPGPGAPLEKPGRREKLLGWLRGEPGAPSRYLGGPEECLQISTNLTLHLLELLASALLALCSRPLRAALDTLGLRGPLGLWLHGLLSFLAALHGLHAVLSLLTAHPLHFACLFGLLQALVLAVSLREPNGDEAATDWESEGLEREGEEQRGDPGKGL

compound: COC(=O)[C@H](CCSC)NC(=O)C1=C(C=C(C=C1)NC[C@H](CS)N)C2=CC=CC=C2; test: log2 fold change, soluble protein after heating vs DMSO (PISA); higher = thermal stabilisation; K562 cells, 10 uM, 30 min; active = over 0.2 and 3.5 SD of the protein, either way, in both replicates (recomputed)
In short: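 For each measurement, 10 μM compound was applied for 30 min to K562 cells at 2×10^6 cells/mL. Aliquots were heated for 3 min across 48°C-58°C, pooled, and extracted in PBS with 0.5% NP-40 at 4°C; the supernatant after 21,000xg for 90 min was soluble protein. This was quantified by TMTpro 16plex LC-MS/MS with channel sums equalised, and thermal stability was reported relative to control samples from duplicates, on a log2 fold-change scale.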

log2 fold change, inactive:
C1GALT1 (UniProt Q9NS00) -0.064
BUD13 (UniProt Q9BRD0) 0.091
BUD23 isoform 3 (UniProt O43709) -0.004
C1orf131 isoform 5 (UniProt Q8NDD1) 0.095
BTF3 (UniProt P20290) 0.041
C12orf29 (UniProt Q8N999) 0.054
C11orf98 (UniProt E9PRG8) 0.051
CALR (UniProt P27797) 0.018
BUB1 (UniProt O43683) 0.038
CAB39 (UniProt Q9Y376) 0.03
C2orf49 (UniProt Q9BVC5) -0.077
CALU isoform 3 (UniProt O43852) 0.034
C9orf40 (UniProt Q8IXQ3) -0.057
C5orf51 (UniProt A6NDU8) -0.065
CAPZA2 (UniProt P47755) -0.023
CALM2 (UniProt P0DP24) 0.045
C6orf89 isoform 2 (UniProt Q6UWU4) 0.007
CARHSP1 (UniProt Q9Y2V2) 0.022
C5orf22 (UniProt Q49AR2) 0.012
BTK isoform 2 (UniProt Q06187) -0.126
C1orf122 (UniProt Q6ZSJ8) 0.042
C11orf54 (UniProt Q9H0W9) -0.006
C1orf109 (UniProt Q9NX04) 0.076
C3orf38 (UniProt Q5JPI3) -0.159
C17orf80 (UniProt Q9BSJ5) 0.026
C8orf33 isoform 2 (UniProt Q9H7E9) 0.013
C9orf85 isoform 1 (UniProt Q96MD7) 0.019
C2CD5 isoform 4 (UniProt Q86YS7) 0.03
C3 (UniProt P01024) 0.126
C2CD2L (UniProt O14523) 0.014
CA13 (UniProt Q8N1Q1) -0.122
C19orf25 (UniProt Q9UFG5) -0.27
CACYBP (UniProt Q9HB71) 0.032
C2CD2 (UniProt Q9Y426) 0.064
C15orf40 (UniProt Q8WUR7) 0.062
BSG (UniProt P35613) -0.001
BTF3L4 (UniProt Q96K17) 0.002
C6orf47 (UniProt O95873) -0.002
C1orf198 (UniProt Q9H425) 0.073

Random excerpt: 2 entries already listed.
log2 fold change, inactive:
C6orf89 isoform 2 (UniProt Q6UWU4) 0.007
BTF3 (UniProt P20290) 0.041
